In KR20160117808A:
Results are given in words; binding and its absence hold for the method and conditions named. Binding calls can cover weak binding; strength is not graded here.

Target: sCD40L (Biolegend, USA)
Test: sandwich ELISA, RM9C3 coated (10ug/ml), sCD40L, detection with 5C8-Biotin

binding: binds
B1: RM9C3 융합 세포주가 생산하는 항 원숭이 CD154 항체 (antibody, V domains shown)
VH: EVQLQQSGPELVKPGASVKISCKTSGYTFTEYTIHWVKQSHGESLEWIGGIYPNTGGTNYNQKFKGKATLTVDKSSSTVYMEFRGLTSEDSAVYYCARLLFDCDVDWFAYWGQGTLVTVSA
VL: NIVMTQTPKFLLVSAGDRITITCKASQSVNNNVAWYHQKPGQSPKLLIYYASNRYIGVPDRFTGSGYGTDFTFTISTVQAEDLAVYFCQQDHSSLTFGAGTKLELKR
